Results: paper PMC12931155, “Colorectal Cancer Cell's Weapon: RNF32 Engages SPP1^+ Macrophages to Foster Liver Metastasis, Targeted by Indole‐3‐Acetic Acid” (Advanced Science, 2025)
Results are given in words; binding and its absence hold for the method and conditions named. For part of these data: In cells and extracts the contact can be indirect. Some results given as binding are weak or reduced against the parent protein; the word gives no strength. One block for each substance: values may come before it.

Chains of the proteins cited; added tags and fusions are not shown.
UniProt P49841: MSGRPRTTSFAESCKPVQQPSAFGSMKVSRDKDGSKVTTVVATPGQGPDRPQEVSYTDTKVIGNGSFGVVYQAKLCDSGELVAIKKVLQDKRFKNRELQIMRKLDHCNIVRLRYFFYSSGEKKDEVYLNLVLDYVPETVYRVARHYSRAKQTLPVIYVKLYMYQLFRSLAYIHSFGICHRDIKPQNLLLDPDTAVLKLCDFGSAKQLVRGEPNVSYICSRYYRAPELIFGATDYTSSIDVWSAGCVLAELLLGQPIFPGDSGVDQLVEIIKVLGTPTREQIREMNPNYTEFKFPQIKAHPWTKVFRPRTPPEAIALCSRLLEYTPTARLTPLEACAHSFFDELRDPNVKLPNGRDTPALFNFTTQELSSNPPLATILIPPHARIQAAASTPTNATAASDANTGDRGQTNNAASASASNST
UniProt Q9H0A6: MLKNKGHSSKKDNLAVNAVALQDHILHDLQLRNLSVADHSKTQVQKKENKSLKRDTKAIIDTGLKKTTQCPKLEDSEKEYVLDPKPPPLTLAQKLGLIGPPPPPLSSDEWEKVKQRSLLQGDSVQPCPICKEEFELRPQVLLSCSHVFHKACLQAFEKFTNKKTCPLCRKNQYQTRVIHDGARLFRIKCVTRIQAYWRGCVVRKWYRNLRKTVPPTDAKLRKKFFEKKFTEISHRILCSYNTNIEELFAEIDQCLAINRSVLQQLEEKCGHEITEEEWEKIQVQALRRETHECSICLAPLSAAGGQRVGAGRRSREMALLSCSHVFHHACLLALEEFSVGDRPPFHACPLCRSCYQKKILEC

Key:
GST-GSK3β = GST-GSK3β (UniProt P49841); assay: pull-down; 50 µg GST-GSK3β or GST on glutathione Sepharose 4B beads, incubated with 20 µg purified Flag-RNF32; Western blot with anti-FLAG and anti-GST; both purified
HA-tagged GSK3β = HA-tagged GSK3β (UniProt P49841); assay: co-IP; 293T cells transfected with FLAG-RNF32 and HA-GSK3β plasmids (wild type or mutated), 24 h; IP lysis buffer; protein G agarose beads with antibodies overnight at 4 °C; washes with 300 mM or 150 mM NaCl; immunoblot
[1] = target: FLAG-tagged RNF32 (human) (UniProt Q9H0A6); assay: as above

binding (GST-GSK3β): binds
Substance: FLAG-RNF32 purified from E. coli (from UniProt Q9H0A6 1-362) (enzyme)

binding (HA-tagged GSK3β): binds
Substance: FLAG-tagged RNF32 (from UniProt Q9H0A6 1-362) (enzyme)

binding [1]: binds
Substance: HA-tagged GSK3β (from UniProt P49841 1-420) (enzyme)
